Measured values as given in publication PMC2323224.
No constants are given. Whether binding was seen depends on the method and setting. Some entries that bind do so weakly or less than the wild type.

Amino acid sequences for entries named in this document (tags omitted).
UniProt Q0PBP3: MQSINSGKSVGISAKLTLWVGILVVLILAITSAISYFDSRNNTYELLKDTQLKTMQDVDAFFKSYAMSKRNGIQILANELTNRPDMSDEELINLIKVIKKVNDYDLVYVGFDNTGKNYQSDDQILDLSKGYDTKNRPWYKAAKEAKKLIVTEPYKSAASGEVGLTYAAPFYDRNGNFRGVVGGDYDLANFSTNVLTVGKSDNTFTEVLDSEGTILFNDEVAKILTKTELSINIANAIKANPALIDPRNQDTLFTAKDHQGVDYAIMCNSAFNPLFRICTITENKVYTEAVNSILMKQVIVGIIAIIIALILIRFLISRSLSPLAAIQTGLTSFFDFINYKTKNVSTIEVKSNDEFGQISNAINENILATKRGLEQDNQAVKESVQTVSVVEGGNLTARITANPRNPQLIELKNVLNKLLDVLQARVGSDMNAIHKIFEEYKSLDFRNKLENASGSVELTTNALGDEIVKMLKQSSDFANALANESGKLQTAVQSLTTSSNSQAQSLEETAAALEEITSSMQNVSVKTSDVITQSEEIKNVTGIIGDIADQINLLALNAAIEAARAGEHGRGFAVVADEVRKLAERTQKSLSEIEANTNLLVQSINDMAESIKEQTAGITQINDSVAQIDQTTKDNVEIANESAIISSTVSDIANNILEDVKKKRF

How the values were obtained:
Experiment in all cases: two-hybrid; LexA-based yeast two-hybrid; full length ORFs as LexA BD fusions (MAL62 promoter, strain Y309) mated with AD fusions (GAL1 promoter, strain RFY231); two-phase pooled matrix screen plus a library screen of 94 BD strains; LEU2 and lacZ reporters, background-corrected combined score >= 1; positives retested in one-on-one matings
[1] = biological target: CheW (C. jejuni NCTC11168) (UniProt Q0PBM3)
[2] = biological target: T1, CheA (C. jejuni NCTC11168) (UniProt Q0PBM2)
T1 sequence: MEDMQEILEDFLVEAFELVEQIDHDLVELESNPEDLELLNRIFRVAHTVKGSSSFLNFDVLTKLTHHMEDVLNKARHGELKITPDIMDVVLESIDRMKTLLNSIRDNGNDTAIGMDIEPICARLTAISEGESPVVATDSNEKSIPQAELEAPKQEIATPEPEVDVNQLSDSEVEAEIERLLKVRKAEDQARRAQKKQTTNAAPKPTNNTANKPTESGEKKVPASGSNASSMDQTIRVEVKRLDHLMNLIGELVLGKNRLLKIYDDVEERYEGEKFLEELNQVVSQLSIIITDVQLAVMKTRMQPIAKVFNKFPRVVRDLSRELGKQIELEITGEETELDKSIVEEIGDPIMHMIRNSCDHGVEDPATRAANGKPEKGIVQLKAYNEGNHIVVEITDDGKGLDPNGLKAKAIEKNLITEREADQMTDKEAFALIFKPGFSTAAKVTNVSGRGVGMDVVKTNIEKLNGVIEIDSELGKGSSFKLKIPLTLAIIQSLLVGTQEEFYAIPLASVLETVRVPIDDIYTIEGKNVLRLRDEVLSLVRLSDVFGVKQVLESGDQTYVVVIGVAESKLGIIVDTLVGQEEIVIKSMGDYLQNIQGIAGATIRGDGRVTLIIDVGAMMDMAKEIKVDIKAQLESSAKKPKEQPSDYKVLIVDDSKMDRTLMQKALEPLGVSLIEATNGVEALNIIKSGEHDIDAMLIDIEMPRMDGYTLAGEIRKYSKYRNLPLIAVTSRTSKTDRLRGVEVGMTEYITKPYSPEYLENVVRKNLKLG

[3] = substrate: T2, SSB (C. jejuni NCTC11168) (UniProt O69302)
T2 sequence: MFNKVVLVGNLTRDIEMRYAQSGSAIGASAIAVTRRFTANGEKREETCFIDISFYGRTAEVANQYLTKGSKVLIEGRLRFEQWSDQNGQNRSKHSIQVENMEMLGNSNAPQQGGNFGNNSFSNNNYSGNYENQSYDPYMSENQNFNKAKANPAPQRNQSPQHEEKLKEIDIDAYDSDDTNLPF

[4] = biological target: T3, IlvH (C. jejuni NCTC11168) (UniProt Q0PAU2)
T3 sequence: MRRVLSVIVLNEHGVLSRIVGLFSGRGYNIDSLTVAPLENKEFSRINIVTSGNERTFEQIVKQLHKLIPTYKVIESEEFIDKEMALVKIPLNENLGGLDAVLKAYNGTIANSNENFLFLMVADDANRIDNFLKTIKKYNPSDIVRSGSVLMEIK

[5] = biological target: T4, TrxB (C. jejuni NCTC11168) (UniProt Q0PBZ1)
T4 sequence: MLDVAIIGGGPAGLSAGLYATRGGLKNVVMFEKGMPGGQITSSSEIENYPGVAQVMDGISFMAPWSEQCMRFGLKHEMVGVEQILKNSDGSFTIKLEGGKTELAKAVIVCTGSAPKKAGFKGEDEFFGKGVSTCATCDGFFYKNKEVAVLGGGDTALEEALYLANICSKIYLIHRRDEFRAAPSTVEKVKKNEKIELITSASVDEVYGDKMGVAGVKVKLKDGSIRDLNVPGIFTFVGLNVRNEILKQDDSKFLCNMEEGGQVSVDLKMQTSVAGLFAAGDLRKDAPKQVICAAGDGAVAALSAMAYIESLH

[6] = biological target: T5, DnaN (C. jejuni NCTC11168) (UniProt Q0PCC3)
T5 sequence: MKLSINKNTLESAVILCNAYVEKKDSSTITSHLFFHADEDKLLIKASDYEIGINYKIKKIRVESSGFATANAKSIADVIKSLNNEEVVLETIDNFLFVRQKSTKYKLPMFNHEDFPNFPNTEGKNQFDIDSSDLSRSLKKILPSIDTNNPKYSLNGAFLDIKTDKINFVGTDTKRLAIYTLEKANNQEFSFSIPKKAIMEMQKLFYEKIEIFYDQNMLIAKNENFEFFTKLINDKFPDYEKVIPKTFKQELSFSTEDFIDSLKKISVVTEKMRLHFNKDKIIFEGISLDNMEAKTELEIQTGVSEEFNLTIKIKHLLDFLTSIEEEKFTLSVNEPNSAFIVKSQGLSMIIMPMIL

[7] = biological target: T6, ExbD3 (C. jejuni NCTC11168) (UniProt Q0PC27)
T6 sequence: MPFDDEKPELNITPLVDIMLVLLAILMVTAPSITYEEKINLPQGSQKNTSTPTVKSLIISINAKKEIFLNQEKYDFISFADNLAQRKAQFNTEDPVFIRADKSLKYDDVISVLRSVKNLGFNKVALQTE

[8] = biological target: T7, FabG (C. jejuni NCTC11168) (UniProt Q0PB75)
T7 sequence: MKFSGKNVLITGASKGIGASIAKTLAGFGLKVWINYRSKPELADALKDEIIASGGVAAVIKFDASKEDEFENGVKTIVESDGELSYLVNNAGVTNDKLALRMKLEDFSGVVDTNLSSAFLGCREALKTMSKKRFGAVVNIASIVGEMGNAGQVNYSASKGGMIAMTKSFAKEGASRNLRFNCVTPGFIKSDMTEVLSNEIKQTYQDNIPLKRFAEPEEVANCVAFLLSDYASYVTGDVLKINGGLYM

Cj0262c (from UniProt Q0PBP3 1-665) was tested, and the binding [1] was “binds”.

With CheW (from UniProt Q0PBM3 1-173) the binding [2] was “binds”.

B1: RecJ (protein, UniProt Q0PC97 1-523)
chain: MKIINKNEIKKILASRFEKDLHTKLCDLPLPCCLKDAYKAANRIKEAVEKNEKVAIVGDYDVDGIISCVIMAEFFDDIGFDYIIRIPNRFKDGYGLNAEIINELDVNLIITVDNGIAALEAAKLCKEKNIDLIITDHHMPQDILPDAFAIINPKQKDCDFPEIEICGAQVAWYLIAALKEVCKLKYDMCKFLELLAIAIVADMMELRDLNRALVRRGIDHINKSKRAAFRAIKHYYQKDKFALDNIGFLIAPLINSAGRMDDASISYEFLHTKDFNKALEYLEQIVSFNESRKDEEKQLFEDSLNQIDENDSCIVVSGLNWHEGVLGIVASRLAKHFNKPAFVFSQNEEHLKGSARSVGKIDILALISKTNSILSNYGGHKGAAGISLNSENFEQFKNKIKKECSQISESEFLDTDEILGILEPSEIDFEMLEILESFEPFGHKNPRPFFVLENLCVKNKKLLGKDEKHLKLVLTKENKTIEALFFNFDKEPELNQNISLLGSISKNEFRGMVTPQFVVKEIL
With B1 the binding [3] was “binds”.

B2: IlvI (protein, UniProt Q0PAU3 1-566)
chain: MKELSGSAMICEALKEENVKIVFGYPGGAALNIYDEIYNQKYFKHILVRHEQAALHAADAYARMSGEVGVAIVTSGPGFTNTITGLATAYSDSIPLVLISGQVANSLIGTDAFQEIDAVGISRPCVKHNYLVTCIEEFPRILKEAFYIARSGRPGPVHIDVPKDVSATLGLWEYSKEISMKTYKPVYKGNSKQIKKFAELLKEAKRPLFYLGGGCISSNASEQIRELIKFTKIPAVETLMALGTLRSDDVFNLKMAGMHGSYAANMALSECDLLVSVGARFDDRITGKTSEFAKHATIVHVDIDPSSISKIINAHYPIVGDIKEVLKELLEELKKENFNTTFKEWHETLKRYNELYPLSYEDSNEILKPQWVIEECAKMAPDARIITDVGQHQMWVAQFYPFNYPRQLATSGGQGTMGYSLPAALGAKLAVGEEVVINFVGDGSVLMNIQELMTAYEYGIKAINIILNNAFLGMVRQWQSMFYKEHFSQTDLSTQPDFIKIAQGFGCEGYEISNKEEFIQAFSQALKSDKTSLLNVKIDRFEDVLPMVPAGGAIYNMILPKAKDRQ
With B2 the binding [4] was “binds”.

B3: TrxA (protein, UniProt Q0PBZ0 1-104)
chain: MGKYIELTSDNFAQAKEGVALVDFWAPWCGPCRMLAPVIDELSNDFDGKAKICKVNTDEQGDLAAEFGVRSIPTLIFFKNGEVVDQLVGAQSKQAISDKLNSLL
B3 was tested, and the binding [5] was “binds”.

B4: DnaX (protein, UniProt Q0P999 1-509)
chain: MLQALAIKYRPKTFDELIGQKTVSVSLKYALNHNRLAHAYLFSGLRGSGKTSSARIFSRALVCEQGPSDTPCGTCKHCLAALEGKHIDIIEMDAASNRGLEDIQALIEQTKYTPSMARFKIFIIDEVHMLTPQAANALLKTLEEPPSYVKFILATTDPLKLPATVLSRTQHFRFKQIPQSEILNHLKEILLKENVKFEEEALKFIARSGNGSLRDTLTLLDQAIIFCQNEISISKITDMLGFLDPQKIKAFYQAILTKDKEKVFVYLEELQDYEASSVIDEMLFYLKESFFAKSTEFSTLIYERFFRILSKAKNMLCDDDGFTLCVMAFMMMEASHLKEIDAQIQEIKQENTTNIISRITPSPIIPHLEKKTEKNAYEILLDSIYDRDFDLAECFKQSTNFISFENNTLNINSNAQGQNRDTLNKGFKLIQELFKAKFGENAKINVQKALTIDENKLQSLTQELPNNENKNIDIQSSINMLKEGAKKFDPQEDLKEALKDCFGEPSIEN
In the case of B4, the binding [6] is reported as “binds”.

B5: ExbD1 (protein, UniProt Q0PBV9 1-136)
chain: MIKTEMAHKEEELSEINITPFIDIMLVLLIVFMAVTPLITSSIKIELPKSSQQAEDKLKNPIILYLNTDNTLAINDDKLSLENLSSALDIKTKGNKEEIIYFHIDKSVKYEDIMQVMQKLKENGYGKIALSSKKMD
For B5, the binding [7] was “binds”.

B6: FabF (protein, UniProt Q0PB68 1-404)
chain: MKRVVVTGIGMINALGLDKESSFKAICNGESGVNKITLFDATDFPVQIAAEVKNFDPLEVVDGKEVKKIDRFIQLGIKAAREAMQDAGFSEELDKEEFGIVSASGIGGLPNIEKNSIICSERGPRKISPFFIPSALVNMLGGLISIEHGLKGPNISCVTACAAGTHAIGEAYKSIALGNAKKMLVIGAEAAICPVGIGGFASMKALSTRNEDPQHASRPFDKERDGFVMGEGAGALVFEEYEEAKKRGATIYAELIGFGESADAHHITSPTLDGPLRAMKKALNMAGNPKVDYINAHGTSTPVNDKNETAAIKELFGNNIPLISSTKGQTGHCLGAAGAIEAVVSVMVLRDGVVPPTINQLVKDDECDLDYIPNISRKVDLKVVMSNSFGFGGTNGCVVFKKVD
For B6, the binding [8] was “binds”.
